Tested on: transporters from neuron-derived, testicular and pulmonary cell membranes
Test: biological material separator with three transporter chips, amino-acid analysis using nano LC
Settings: amino acid mixed solution fed in clearance 30-1, pH 6.5

Structure (SMILES) | distribution over clearances 30-2 to 30-4
C[C@H](N)C(=O)O [Alanine, alanine] | detected in all of the clearances
N[C@@H](CC(=O)O)C(=O)O [aspartic acid] | accumulated in the clearances 30-2 and 30-3
N[C@@H](CCC(=O)O)C(=O)O [glutamic acid] | accumulated in the clearances 30-2 and 30-3
NC(=O)CC[C@H](N)C(=O)O [glutamine] | detected in all of the clearances
